Patent US7888349B2, “Piperazine, [1,4]Diazepane, [1,4]Diazocane, and [1,5]Diazocane fused imidazo ring compounds” (3M Innovative Properties Company, priority 2003, dated 2011)
Counter-ions that a name gives are not always drawn. Some results were stated once for a whole list of compounds, not compound by compound.

Each compound was assayed on human peripheral blood mononuclear cells (PBMC) (assay: Cytokine Induction in Human Cells (interferon α and tumor necrosis factor α secreted into culture media)). Conditions: compounds generally tested at 30-0.014 μM, incubated 18 to 24 hours, ELISA of supernatant.
Assay type: cell-based
`Cc1ccc(CN2CCn3c(nc4c(N)nc5ccccc5c43)C2)c(C)c1.O=C(O)C(F)(F)F` [Example 34] was tested, and the “induction of production of interferon α and/or tumor necrosis factor α” value (“induction” below) was “inducing the production of interferon α and/or tumor necrosis factor α”.
`Cc1ccc(CN2CCCn3c(nc4c(N)nc5ccccc5c43)C2)cc1` [Example 127] was tested, and the “induction” value was “inducing the production of interferon α and/or tumor necrosis factor α”.
For `CS(=O)(=O)N1Cc2nc3c(N)nc4ccccc4c3n2CC(O)C1` (centres unmarked) [Example 2, 6-Amino-9-(methylsulfonyl)-9,10,11,12-tetrahydro-8H-[1,4]diazepino[1′,2′:1,2]imidazo[4,5-c]quinolin-11-ol], the “induction” value was “inducing the production of interferon α and/or tumor necrosis factor α”.
`Nc1nc2cc(OCc3ccccc3)ccc2c2c1nc1n2CCNC1` [Example 399, 3-benzyloxy-8,9,10,11-tetrahydropyrazino[1′,2′:1,2]imidazo[4,5-c]quinolin-6-amine] was tested, and the “induction” value was “inducing the production of interferon α and/or tumor necrosis factor α”.
In the case of `Nc1nc2cc(OCc3ccccc3)ccc2c2c1nc1n2CCN(C(=O)C2CC2)C1` [Example 404], the “induction” value is reported as “inducing the production of interferon α and/or tumor necrosis factor α”.
`COc1cccc(CN2CCn3c(nc4c(N)nc5ccccc5c43)C2)c1.O=C(O)C(F)(F)F` [Example 41] was tested, and the “induction” value was “inducing the production of interferon α and/or tumor necrosis factor α”.
In the case of `Cc1nc(N)c2nc3n(c2c1C)CCCN(C(=O)C(C)(C)C)C3` [Example 500], the “induction” value is reported as “inducing the production of interferon α and/or tumor necrosis factor α”.
For `N#Cc1cccc(NC(=O)N2CCCn3c(nc4c(N)nc5ccccc5c43)C2)c1` [Example 297], the “induction” value was “inducing the production of interferon α and/or tumor necrosis factor α”.
In the case of `Nc1nc2ccccc2c2c1nc1n2CCCN(Cc2cccc(F)c2)C1.O=C(O)C(F)(F)F` [Example 131], the “induction” value is reported as “inducing the production of interferon α and/or tumor necrosis factor α”.
With `Nc1nc2ccccc2c2c1nc1n2CCN(C(=O)c2ccc(Cl)c(Cl)c2)C1` [Example 83] the “induction” value was “inducing the production of interferon α and/or tumor necrosis factor α”.
In the case of `Nc1nc2ccccc2c2c1nc1n2CCN(S(=O)(=O)c2cccc3cccnc23)C1` [Example 87], the “induction” value is reported as “inducing the production of interferon α and/or tumor necrosis factor α”.
In the case of `CC(C)(C)OC(=O)N1CCn2c(nc3c(N)nc4ccccc4c32)C1` [Example 4, tert-Butyl 6-amino-10,11-dihydropyrazino[1′,2′:1,2]imidazo[4,5-c]quinoline-9(8H)-carboxylate], the “induction” value is reported as “inducing the production of interferon α and/or tumor necrosis factor α”.
In the case of `CC(CN1CCCn2c(nc3c(N)nc4ccccc4c32)C1)c1ccccc1.O=C(O)C(F)(F)F` (centres unmarked) [Example 138], the “induction” value is reported as “inducing the production of interferon α and/or tumor necrosis factor α”.
In the case of `Nc1nc2ccccc2c2c1nc1n2CCN(C(=O)Cc2cccs2)C1.O=C(O)C(F)(F)F` [Example 78], the “induction” value is reported as “inducing the production of interferon α and/or tumor necrosis factor α”.
`Cc1ccc(CN2CCn3c(nc4c(N)nc5ccccc5c43)C2)cc1C.O=C(O)C(F)(F)F` [Example 37] was tested, and the “induction” value was “inducing the production of interferon α and/or tumor necrosis factor α”.
With `CCS(=O)(=O)N1CCn2c(nc3c(N)nc4cc(OCc5ccccc5)ccc4c32)C1` [Example 413] the “induction” value was “inducing the production of interferon α and/or tumor necrosis factor α”.
`Cc1nc(N)c2nc3n(c2c1C)CCN(C(=S)NC1CC1)C3` [Example 635] was tested, and the “induction” value was “inducing the production of interferon α and/or tumor necrosis factor α”.
For `CC(=O)c1cccc(NC(=O)N2CCCn3c(nc4c(N)nc5ccccc5c43)C2)c1` [Example 313], the “induction” value was “inducing the production of interferon α and/or tumor necrosis factor α”.
`Nc1nc2ccccc2c2c1nc1n2CCCN(C(=O)c2ccc(F)cc2)C1.O=C(O)C(F)(F)F` [Example 208] was tested, and the “induction” value was “inducing the production of interferon α and/or tumor necrosis factor α”.
In the case of `Nc1nc2ccccc2c2c1nc1n2CCCN(CC2CC3C=CC2C3)C1` (mixture of isomers) [Example 129], the “induction” value is reported as “inducing the production of interferon α and/or tumor necrosis factor α”.
With `Cc1nc(N)c2nc3n(c2c1C)CCN(C(=O)N(C)C)C3` [Example 637] the “induction” value was “inducing the production of interferon α and/or tumor necrosis factor α”.
With `Nc1nc2ccccc2c2c1nc1n2CCN(Cc2ccccc2)C1.O=C(O)C(F)(F)F` [Example 13] the “induction” value was “inducing the production of interferon α and/or tumor necrosis factor α”.
For `Nc1nc2ccccc2c2c1nc1n2CCN(Cc2cccc(F)c2F)C1.O=C(O)C(F)(F)F` [Example 43], the “induction” value was “inducing the production of interferon α and/or tumor necrosis factor α”.
`Nc1nc2ccccc2c2c1nc1n2CCCN(CCc2ccccc2)C1` [Example 128] was tested, and the “induction” value was “inducing the production of interferon α and/or tumor necrosis factor α”.
`COc1ccc(S(=O)(=O)N2CCCn3c(nc4c(N)nc5ccccc5c43)C2)cc1.O=C(O)C(F)(F)F` [Example 264] was tested, and the “induction” value was “inducing the production of interferon α and/or tumor necrosis factor α”.
In the case of `Nc1nc2ccccc2c2c1nc1n2CCCN(Cc2ccc(F)cc2)C1.O=C(O)C(F)(F)F` [Example 132], the “induction” value is reported as “inducing the production of interferon α and/or tumor necrosis factor α”.
In the case of `CS(=O)(=O)N1CCCn2c(nc3c(N)nc4ccccc4c32)C1` [Example 7, 9-(Methylsulfonyl)-9,10,11,12-tetrahydro-8H-[1,4]diazepino[1′,2′:1,2]imidazo[4,5-c]quinolin-6-amine trifluoroacetate], the “induction” value is reported as “inducing the production of interferon α and/or tumor necrosis factor α”.
With `Nc1nc2ccccc2c2c1nc1n2CCCN(CC2CCCCC2)C1` [Example 123] the “induction” value was “inducing the production of interferon α and/or tumor necrosis factor α”.
In the case of `Cc1cc(C)cc(CN2CCCn3c(nc4c(N)nc5ccccc5c43)C2)c1.O=C(O)C(F)(F)F` [Example 140], the “induction” value is reported as “inducing the production of interferon α and/or tumor necrosis factor α”.
For `COc1ccc2c(c1)nc(N)c1nc3n(c12)CCCN(S(C)(=O)=O)C3` [Example 490], the “induction” value was “inducing the production of interferon α and/or tumor necrosis factor α”.
For `CS(=O)(=O)N1CCn2c(nc3c(N)nc4cc(-c5ccccc5CO)ccc4c32)C1` [Example 396], the “induction” value was “inducing the production of interferon α and/or tumor necrosis factor α”.
With `Cc1cc(C)cc(-c2ccc3c(c2)nc(N)c2nc4n(c23)CCN(S(C)(=O)=O)C4)c1` [Example 394] the “induction” value was “inducing the production of interferon α and/or tumor necrosis factor α”.
With `CSCCCN1CCn2c(nc3c(N)nc4ccccc4c32)C1.O=C(O)C(F)(F)F` [Example 12] the “induction” value was “inducing the production of interferon α and/or tumor necrosis factor α”.
With `Nc1nc2ccccc2c2c1nc1n2CCCN(CC2CC=CCC2)C1` (centres unmarked) [Example 121] the “induction” value was “inducing the production of interferon α and/or tumor necrosis factor α”.
For `CC(C)CCN1CCCn2c(nc3c(N)nc4ccccc4c32)C1` [Example 114], the “induction” value was “inducing the production of interferon α and/or tumor necrosis factor α”.
For `Nc1nc2ccccc2c2c1nc1n2CCN(Cc2ccsc2)C1.O=C(O)C(F)(F)F` [Example 20], the “induction” value was “inducing the production of interferon α and/or tumor necrosis factor α”.
For `CN(C)c1cccc2c(S(=O)(=O)N3CCCn4c(nc5c(N)nc6ccccc6c54)C3)cccc12.O=C(O)C(F)(F)F` [Example 282], the “induction” value was “inducing the production of interferon α and/or tumor necrosis factor α”.
In the case of `Cc1ccc(-c2ccc3c(c2)nc(N)c2nc4n(c23)CCN(S(C)(=O)=O)C4)cc1` [Example 391], the “induction” value is reported as “inducing the production of interferon α and/or tumor necrosis factor α”.
With `Cc1nc(N)c2nc3n(c2c1C)CCN(S(=O)(=O)Cc1ccccc1)C3` [Example 626] the “induction” value was “inducing the production of interferon α and/or tumor necrosis factor α”.
With `CS(=O)(=O)N1CCn2c(nc3c(N)nc4cc(Br)ccc4c32)C1` [Example 367, 3-Bromo-9-(methylsulfonyl)-8,9,10,11-tetrahydropyrazino[1′,2′:1,2]imidazo[4,5-c]quinolin-6-amine] the “induction” value was “inducing the production of interferon α and/or tumor necrosis factor α”.
With `Cc1nc(N)c2nc3n(c2c1C)CCCN(CCC(C)C)C3` [Example 567] the “induction” value was “inducing the production of interferon α and/or tumor necrosis factor α”.
With `CS(=O)(=O)N1CCCn2c(nc3c(N)nc4cc(OCc5ccccc5)ccc4c32)C1` [Example 369, 3-(Benzyloxy)-9-(methylsulfonyl)-9,10,11,12-tetrahydro-8H-[1,4]diazepino[1′,2′:1,2]imidazo[4,5-c]quinolin-6-amine] the “induction” value was “inducing the production of interferon α and/or tumor necrosis factor α”.
In the case of `CS(=O)(=O)N1CCCn2c(nc3c(N)nc4c(c32)CCCC4)C1` [Example 363, 9-(Methylsulfonyl)-2,3,4,8,9,10,11,12-octahydro-1H-[1,4]diazepino[1′,2′:1,2]imidazo[4,5c]quinolin-6-amine], the “induction” value is reported as “inducing the production of interferon α and/or tumor necrosis factor α”.
For `CCCNC(=O)N1CCn2c(nc3c(N)nc4ccccc4c32)C1` [Example 93], the “induction” value was “inducing the production of interferon α and/or tumor necrosis factor α”.
